# Primary screen of a compound library

Source: ChEMBL document CHEMBL3988442, “University of Dundee, Small-Polar-MMV Screening Library” (2021).

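Viability assay of Plasmodium falciparum sporozoites; the read-out is not stated. The concentration is filed as 10 mM, unlikely as a test dose, so the dose is not known. The record gives no direction; compounds that gave an IC50 in retests scored well above the rest, so higher reads as lower viability. Strong results were mostly tested again. About 34,000 compounds were tested under these conditions; 0.84% (about 280) showed 50% or more at least once.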

Results are given as percent effect. How 0% and 100% were set is not recorded. Most values in the screen are low, and negative values occur. Compounds were drawn at random from those tested, without regard to their results. Two or more numbers in one place are separate tests of the same structure; such repeats can differ widely.

| # | structure | percent effect |
|---|---|---|
| 1 | `CCn1nc2c(cc1=O)CN(Cc1coc(-c3ccccc3)n1)CC2` | 6.632% |
| 2 | `Cn1c(N)nnc1SCC1OCCc2ccccc21` (centres unmarked) | 1.6% |
| 3 | `Cc1noc(C)c1CN1C[C@H](C)[C@]2(CCN(Cc3cccnc3)C2=O)C1.O=C(O)C(F)(F)F.O=C(O)C(F)(F)F` | 6.859% |
| 4 | `CN(CCNC(=O)c1cccnc1)S(C)(=O)=O` | -0.4615% |
| 5 | `CNc1cncc(C2CCCN2C(=O)c2ccc3oc(C)cc3c2)n1` (centres unmarked) | -5.889% |
| 6 | `O=C(c1cc(COc2ccc3c(c2)OCO3)[nH]n1)N1CC=CC1CO` (centres unmarked) | -13.19% |
| 7 | `Cn1c(CN2CCOC(CCc3ccncn3)C2)nc2ccccc21` (centres unmarked) | -8.645% |
| 8 | `Cc1ccc(-c2cc(CN3CCOC(Cn4cncn4)C3)on2)cc1` (centres unmarked) | -9.067% |
| 9 | `CCn1ncc(C(=O)NCCc2nc(-c3ccc(C)cc3)n[nH]2)c1C` | -0.5812% |
| 10 | `CNC(=O)CC1CCN(C(=O)Nc2ccc(-c3cc[nH]n3)cc2)CC1` | -1.446% |
| 11 | `CC(C)C(C)NC(=O)Nc1ccc(CS(C)(=O)=O)cc1` (centres unmarked) | -19.95% & -13.16% & -10.87% |
| 12 | `Cc1cccc(C(=O)N2CCc3ncnc(C4CCOC4)c3CC2)n1.O=C(O)C(F)(F)F` (centres unmarked) | -3.906% |
| 13 | `COC(=O)c1cccc(C(=O)NCc2ccc(C)o2)n1` | -3.542% |
| 14 | `Cc1cc(CNc2ccc(C(=O)N3CCCC(C)C3)cc2C)no1` (centres unmarked) | -11.71% & 8.667% & -6.818% |
| 15 | `Cc1cc(N2CCN(Cc3ccc(-c4cc[nH]n4)o3)CC2)cc(C)n1` | -10.3% |
| 16 | `NCc1cnn(-c2ccccc2C(=O)NCCc2ccccn2)c1` | 0.5363% |
| 17 | `CN1C(=O)C2(CCN(C(=O)C3CCOCC3)CC2)c2ccccc21` | -2.364% |
| 18 | `CN1CCC(c2[nH]ncc2S(C)(=O)=O)CC1` | 1.535% |
| 19 | `CCOC(C)c1noc(CN2CCN(Cc3cccnc3)CC2)n1` (centres unmarked) | 11.37% |
| 20 | `CCCn1cc(NC(=O)c2ccc(NC(=O)NC3CC3)cc2)ccc1=O` | -1.695% |
| 21 | `Cc1nccn1CCN(C)C(=O)C1CCCN(C2CCOCC2)C1` (centres unmarked) | -11.23% |
| 22 | `O=C(NC1CC1)C1CCN(c2snc3ccccc23)CC1` | 10.3% |
| 23 | `c1cnc(N2CCCC3(COCCN(c4nncs4)C3)C2)cn1` (centres unmarked) | -15.57% |
| 24 | `COC(=O)c1cccc(C(=O)NCc2ccco2)n1` | -12.08% |
| 25 | `COCCOc1cccc(CNCc2c(C)nn(C)c2N(C)C)c1` | 7.444% |
| 26 | `CC(C)(C)C(O)CN1CCN(Cc2cccc(C#N)c2)CC1` (centres unmarked) | 15.43% |
| 27 | `COc1nccnc1N1CCC2(CC1)[C@H](O)C[C@@H]2OCCN(C)C` | 1.784% |
| 28 | `CCCS(=O)(=O)Nc1ccc2c(c1)OCC(C)(C)C(=O)N2C` | 2.479% |
| 29 | `COCCN1CCc2c(CNC(=O)c3nccn3C)cncc2C1.Cl.Cl.Cl` | 15.08% |
| 30 | `O=C(N1CCCC1)N1CCC2(CCN(Cc3ccccn3)C2=O)C1.O=C(O)C(F)(F)F` (centres unmarked) | -13.99% |
| 31 | `O=C(O)C(F)(F)F.O=C(O)C(F)(F)F.[H][C@]12CO[C@H](CN(C)Cc3ccco3)[C@@]1([H])CCN(c1cccc(C)n1)C2` | 6.421% |
| 32 | `CCC(=O)N1CCC2(CC1)C(c1cccnc1)CC(=O)N2CCOC.O=C(O)C(F)(F)F` (centres unmarked) | -4.203% |
| 33 | `Cc1nn2cccnc2c1C(=O)N1CCCC(n2cccn2)C1` (centres unmarked) | 6.287% |
| 34 | `CCCc1nc(CN2CCOC(Cn3cccn3)C2)no1` (centres unmarked) | 5.993% |
| 35 | `Cc1ncc2c(n1)CN(CC(=O)Nc1nccs1)CC2` | 4.178% |
| 36 | `CCc1ccc(O)c(C(=O)NC2CCN(C(=O)OC)CC2)c1` | -4.67% |
| 37 | `Cc1ccccc1NS(=O)(=O)c1cc2c(c(C(=O)O)c1)OCCO2` | 5.949% |
| 38 | `CNc1cc(C2CCCN2Cc2ccccc2C(=O)O)ccn1` (centres unmarked) | -16.23% |
| 39 | `CCS(=O)(=O)c1ccccc1N1CCC(N)CC1` | 10.02% |
| 40 | `Cc1ccc(F)c(C(=O)N2CCC(Nc3ccc(C)nn3)CC2)c1` | 4.374% |
| 41 | `[H][C@@]12C[C@H](C(=O)Nc3ccccc3)[C@@]([H])(CN(Cc3cccnc3)C1)O2` | 1.117% |
| 42 | `CC(NC(=O)NCCCn1cncn1)c1ccccc1F` (centres unmarked) | -1.287% |
| 43 | `[H][C@@]12C[C@@H](C)O[C@]1([H])CN(C(=O)C1=CCCCC1)C2` | 11.46% |
| 44 | `[H][C@]12CCC[C@@]1(COCc1cccnc1)CN(C(=O)c1ccc(C)s1)C2` | -9.06% |
| 45 | `Cc1cc(C(=O)N2CCCC(n3ccnc3C)C2)c(C)s1` (centres unmarked) | 6.426% |
| 46 | `CC(=O)c1cc(CC(=O)NCc2ccc(F)cc2)cs1` | -3.412% |
| 47 | `CC1CCN(C(=O)CN(Cc2ccco2)C2CC2)CC1` | -6.243% |
| 48 | `Cn1cc(C(=O)N2CCN(c3ccc(F)cc3)CC2)ccc1=O` | -0.111% |
| 49 | `CNc1ccc(CC2CCCN(C(=O)c3scnc3C)C2)nn1` (centres unmarked) | 2.343% |
| 50 | `Cn1ccnc1CN1CCCN(C(=O)c2ccc3[nH]nnc3c2)CC1` | 7.01% |
| 51 | `Cc1nc(C(=O)NCc2ccccn2)cc(C2CCCN2)n1` (centres unmarked) | 15.86% |
| 52 | `c1ccc(Cc2noc(CN3CCOC(Cn4cncn4)C3)n2)cc1` (centres unmarked) | 11.24% |
| 53 | `Cc1nc(C2CCCN2CC(=O)NCCOc2ccc(F)cc2)no1` (centres unmarked) | 12.6% |
| 54 | `CNC(C(=O)N1CCC(c2nccn2C(C)C)CC1)c1ccccc1` (centres unmarked) | -5.526% |
| 55 | `O=C(C1CC1)N1CCCC(c2nc(O)cc(-c3ccncc3)n2)C1` (centres unmarked) | 6.608% |
| 56 | `Cc1nc(C)n(C2CCCN(C(=O)c3ccc(CN(C)C)cc3)C2)n1` (centres unmarked) | -24.4% |
| 57 | `CC(=O)N(Cc1ncc(C(C)C)o1)C1CCN(Cc2nccn2C)C1` (centres unmarked) | 10.94% |
| 58 | `CCOc1ccc(C2CC(=O)Nc3c2c(=O)nc2sccn32)cc1` (centres unmarked) | -23.03% |
| 59 | `CCC(=O)N1CCC2(CC1)CC(N1CCOCC1)c1cc(C)ccc12.O=C(O)C(F)(F)F` (centres unmarked) | -12.08% |
| 60 | `C[C@]1(O)CN(CC(=O)N2CCCC2)CC[C@@H]1Oc1cccc(F)c1` | -0.6695% |
| 61 | `CCc1nc(C2CCCN2C(=O)c2nccnc2N)no1` (centres unmarked) | 7.729% |
| 62 | `Cc1nn(C)c(C)c1-c1nccnc1CC1CCNCC1` | -2.6% |
| 63 | `CCCc1nc(C(C)(C)NC(=O)C2CC(=O)N(CC3CC3)C2)no1` (centres unmarked) | -8.271% |
| 64 | `CC(CC#N)NC(=O)c1cc(Br)c2c(c1)OCCO2` (centres unmarked) | -5.637% |
| 65 | `COC(=O)c1ccc(C(=O)NS(=O)(=O)c2cncc(Br)c2)cc1` | -1.765% |
| 66 | `CN(C)CCn1ccc(NC(=O)NC(C)(C)c2nccs2)n1` | 14.38% |
| 67 | `O=C(Cn1cc(C(=O)O)ccc1=O)Nc1ccc(F)cc1Cl` | -4.605% |
| 68 | `CCCC(=O)N1CCC2(CC1)CC(NC(C)=O)c1ccccc1O2` (centres unmarked) | 11.22% |
| 69 | `CS(=O)(=O)N1CC2(CCN(C(=O)c3ccncc3)CC2)c2ccccc21.O=C(O)C(F)(F)F` | -1.839% |
| 70 | `O=C1CC2(CCN(S(=O)(=O)C3CC3)C2)CN1c1cncnc1` (centres unmarked) | 6.818% |

Repeated from the top, 8 entries:

{"structure": "CCn1nc2c(cc1=O)CN(Cc1coc(-c3ccccc3)n1)CC2", "percent effect": 6.632}
{"structure": "Cn1c(N)nnc1SCC1OCCc2ccccc21", "stereo": "centres unmarked", "percent effect": 1.6}
{"structure": "Cc1noc(C)c1CN1C[C@H](C)[C@]2(CCN(Cc3cccnc3)C2=O)C1.O=C(O)C(F)(F)F.O=C(O)C(F)(F)F", "percent effect": 6.859}
{"structure": "CN(CCNC(=O)c1cccnc1)S(C)(=O)=O", "percent effect": -0.4615}
{"structure": "CNc1cncc(C2CCCN2C(=O)c2ccc3oc(C)cc3c2)n1", "stereo": "centres unmarked", "percent effect": -5.889}
{"structure": "O=C(c1cc(COc2ccc3c(c2)OCO3)[nH]n1)N1CC=CC1CO", "stereo": "centres unmarked", "percent effect": -13.19}
{"structure": "Cn1c(CN2CCOC(CCc3ccncn3)C2)nc2ccccc21", "stereo": "centres unmarked", "percent effect": -8.645}
{"structure": "Cc1ccc(-c2cc(CN3CCOC(Cn4cncn4)C3)on2)cc1", "stereo": "centres unmarked", "percent effect": -9.067}